From US20100048677A1
These are yes or no findings as the source states them, for the method shown. Binding seen in cells or lysates may run through a third protein. Here binding means that the protein was enriched with, or labelled near, the bait; the list need not be complete.

By UniProt entry, the sequences of proteins in these tests, tags left out. Where a name states a change or a piece, a line headed by the entry shows the natural chain unless it says otherwise.
UniProt P08514: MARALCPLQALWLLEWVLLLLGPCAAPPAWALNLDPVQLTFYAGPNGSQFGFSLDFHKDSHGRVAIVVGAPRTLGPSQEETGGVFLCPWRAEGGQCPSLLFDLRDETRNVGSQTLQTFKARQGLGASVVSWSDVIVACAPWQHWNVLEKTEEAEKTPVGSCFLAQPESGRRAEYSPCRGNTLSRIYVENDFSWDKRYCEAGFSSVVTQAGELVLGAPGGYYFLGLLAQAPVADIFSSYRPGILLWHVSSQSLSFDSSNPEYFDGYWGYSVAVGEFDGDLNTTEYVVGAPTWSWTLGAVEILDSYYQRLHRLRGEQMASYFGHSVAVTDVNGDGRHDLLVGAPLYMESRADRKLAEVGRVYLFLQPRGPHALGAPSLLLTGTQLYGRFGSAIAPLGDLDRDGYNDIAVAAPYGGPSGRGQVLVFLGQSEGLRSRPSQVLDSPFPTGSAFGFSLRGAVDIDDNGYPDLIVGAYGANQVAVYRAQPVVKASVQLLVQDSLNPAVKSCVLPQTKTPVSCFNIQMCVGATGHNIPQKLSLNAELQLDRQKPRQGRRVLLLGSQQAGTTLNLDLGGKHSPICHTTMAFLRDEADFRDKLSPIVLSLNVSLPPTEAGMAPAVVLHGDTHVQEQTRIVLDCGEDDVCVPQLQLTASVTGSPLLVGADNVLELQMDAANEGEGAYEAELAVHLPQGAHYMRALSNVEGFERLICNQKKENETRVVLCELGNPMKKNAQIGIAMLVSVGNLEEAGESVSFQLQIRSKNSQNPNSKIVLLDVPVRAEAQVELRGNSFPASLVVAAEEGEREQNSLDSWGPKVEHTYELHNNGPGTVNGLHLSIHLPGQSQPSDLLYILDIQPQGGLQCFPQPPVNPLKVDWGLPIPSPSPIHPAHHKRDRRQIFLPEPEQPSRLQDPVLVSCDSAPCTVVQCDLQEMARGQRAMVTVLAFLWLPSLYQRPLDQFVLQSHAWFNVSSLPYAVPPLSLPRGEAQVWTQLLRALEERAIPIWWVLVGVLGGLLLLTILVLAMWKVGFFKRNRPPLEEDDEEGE

Biological target: αIIbβ3 (human) (UniProt P08514)
Assay: His-tag pull-down or photo-crosslinking and immunoprecipitation, mass spectrometry

binding: binds
B1: DNAJC10 (DNAJ (HSP40) HOMOLOG, SUBFAMILY C, MEMBER 10) (protein)
chain: DQDFYSLLGVSKTASSREIRQAFKKLALKLHPDKNPNNPNAHGDFLKINRAYEVLKDEDLRKKYDKYGEKGLEDNQGGQYESWNYYRYDFGIYDDDPEIITLERREFDAAVNSGELWFVNFYSPGCSHCHDLAPTWRDFAKEVDGLLRIGAVNCGDDRMLCRMKGVNSYPSLFIFRSGMAPVKYHGDRSKESLVSFAMQHVRSTVTELWTGNFVNSIQTAFAAGIGWLITFCSKGGDCLTSQTRLRLSGMLDGLVNVGWMDCATQDNLCKSLDITTSTTAYFPPGATLNNKEKNSILFLNSLDAKEIYLEVIHNLPDFELLSANTLEDRLAHHRWLLFFHFGKNENSNDPELKKLKTLLKNDHIQVGRFDCSSAPDICSNLYVFQPSLAVFKGQGTKEYEIHHGKKILYDILAFAKESVNSHVTTLGPQNFPANDKEPWLVDFFAPWCPPCRALLPELRRASNLLYGQLKFGTLDCTVHEGLCNMYNIQAYPTTVVFNQSNIHEYEGHHSAEQILEFIEDLMNPSVVSLTPTTFNELVTQRKHNEVWMVDFYSPWCHPCQVLMPEWKRMARTLTGLINVGSIDCQQYHSFCAQENVQRYPEIRFFPPKSNKAYHYHSYNGWNRDAYSLRIWGLGFLPQVSTDLTPQTFSEKVLQGKNHWVIDFYAPWCGPCQNFAPEFELLARMIKGKVKAGKVDCQAYAQTCQKAGIRAYPTVKFYFYERAKRNFQEEQINTRDAKAIAALISEKLETLRNQGKRNKDEL
